± gives the standard deviation of the averaged measurements. The list shows a part of the results.
Compound: Nc1nc2c(ncn2[C@@H]2O[C@H](COP(=O)(O)OP(=O)(O)OP(=O)(O)O)[C@@H](O)[C@H]2O)c(=O)[nH]1 [guanosine triphosphate]
Test: NP40-soluble protein abundance relative to vehicle (solubility fold change) (ratio); higher = more soluble protein in presence of GTP
Method in brief: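 Values are fold changes against the detergent-processed vehicle, based on vsn-normalised intensities. Jurkat crude lysate was treated at eight concentrations from 0.1 to 10 mM (10 min at room temperature, then 3 min at 37 °C), solubilised with 0.8% NP40 and benzonase, ultracentrifuged and analysed by TMT-labelled LC-MS/MS over three independent experiments.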

Chains of the proteins cited; added tags and fusions are not shown. Lines headed by an entry give the natural chain unless they say otherwise; changes in a name come on top.
UniProt Q9HAU0: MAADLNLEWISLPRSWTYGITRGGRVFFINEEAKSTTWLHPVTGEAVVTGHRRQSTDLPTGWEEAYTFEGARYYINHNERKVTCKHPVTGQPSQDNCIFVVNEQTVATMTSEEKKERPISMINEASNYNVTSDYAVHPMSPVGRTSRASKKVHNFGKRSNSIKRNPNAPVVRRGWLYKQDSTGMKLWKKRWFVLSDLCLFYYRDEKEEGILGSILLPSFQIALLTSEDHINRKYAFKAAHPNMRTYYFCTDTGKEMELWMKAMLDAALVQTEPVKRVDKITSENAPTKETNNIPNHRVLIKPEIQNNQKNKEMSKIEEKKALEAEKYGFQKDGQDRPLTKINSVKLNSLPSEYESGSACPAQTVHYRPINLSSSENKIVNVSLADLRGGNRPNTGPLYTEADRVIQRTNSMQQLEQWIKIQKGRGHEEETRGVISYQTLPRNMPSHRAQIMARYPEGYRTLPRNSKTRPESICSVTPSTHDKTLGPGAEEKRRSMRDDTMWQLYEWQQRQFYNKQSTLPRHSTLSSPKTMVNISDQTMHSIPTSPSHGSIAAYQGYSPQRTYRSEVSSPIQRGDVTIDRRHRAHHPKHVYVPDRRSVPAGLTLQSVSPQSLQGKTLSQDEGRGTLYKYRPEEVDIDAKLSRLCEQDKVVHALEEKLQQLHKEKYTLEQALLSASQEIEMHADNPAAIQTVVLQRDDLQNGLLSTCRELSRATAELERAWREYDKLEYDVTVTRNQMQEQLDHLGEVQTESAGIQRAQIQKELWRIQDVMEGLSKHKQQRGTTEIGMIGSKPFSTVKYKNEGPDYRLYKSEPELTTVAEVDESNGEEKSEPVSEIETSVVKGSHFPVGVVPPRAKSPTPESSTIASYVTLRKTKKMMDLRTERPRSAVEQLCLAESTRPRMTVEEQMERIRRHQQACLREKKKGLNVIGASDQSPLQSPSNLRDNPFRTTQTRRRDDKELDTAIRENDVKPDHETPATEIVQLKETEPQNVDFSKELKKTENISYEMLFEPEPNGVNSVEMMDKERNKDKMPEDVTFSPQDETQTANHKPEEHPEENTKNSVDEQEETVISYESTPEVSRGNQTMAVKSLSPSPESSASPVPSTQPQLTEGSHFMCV
UniProt Q16629: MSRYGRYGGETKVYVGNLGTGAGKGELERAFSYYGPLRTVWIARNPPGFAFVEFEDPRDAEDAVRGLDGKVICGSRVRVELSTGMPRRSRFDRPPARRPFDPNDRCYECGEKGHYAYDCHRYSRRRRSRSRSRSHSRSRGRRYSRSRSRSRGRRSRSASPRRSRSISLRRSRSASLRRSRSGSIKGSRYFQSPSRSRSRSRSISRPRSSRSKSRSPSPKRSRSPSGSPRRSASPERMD
UniProt Q562E7: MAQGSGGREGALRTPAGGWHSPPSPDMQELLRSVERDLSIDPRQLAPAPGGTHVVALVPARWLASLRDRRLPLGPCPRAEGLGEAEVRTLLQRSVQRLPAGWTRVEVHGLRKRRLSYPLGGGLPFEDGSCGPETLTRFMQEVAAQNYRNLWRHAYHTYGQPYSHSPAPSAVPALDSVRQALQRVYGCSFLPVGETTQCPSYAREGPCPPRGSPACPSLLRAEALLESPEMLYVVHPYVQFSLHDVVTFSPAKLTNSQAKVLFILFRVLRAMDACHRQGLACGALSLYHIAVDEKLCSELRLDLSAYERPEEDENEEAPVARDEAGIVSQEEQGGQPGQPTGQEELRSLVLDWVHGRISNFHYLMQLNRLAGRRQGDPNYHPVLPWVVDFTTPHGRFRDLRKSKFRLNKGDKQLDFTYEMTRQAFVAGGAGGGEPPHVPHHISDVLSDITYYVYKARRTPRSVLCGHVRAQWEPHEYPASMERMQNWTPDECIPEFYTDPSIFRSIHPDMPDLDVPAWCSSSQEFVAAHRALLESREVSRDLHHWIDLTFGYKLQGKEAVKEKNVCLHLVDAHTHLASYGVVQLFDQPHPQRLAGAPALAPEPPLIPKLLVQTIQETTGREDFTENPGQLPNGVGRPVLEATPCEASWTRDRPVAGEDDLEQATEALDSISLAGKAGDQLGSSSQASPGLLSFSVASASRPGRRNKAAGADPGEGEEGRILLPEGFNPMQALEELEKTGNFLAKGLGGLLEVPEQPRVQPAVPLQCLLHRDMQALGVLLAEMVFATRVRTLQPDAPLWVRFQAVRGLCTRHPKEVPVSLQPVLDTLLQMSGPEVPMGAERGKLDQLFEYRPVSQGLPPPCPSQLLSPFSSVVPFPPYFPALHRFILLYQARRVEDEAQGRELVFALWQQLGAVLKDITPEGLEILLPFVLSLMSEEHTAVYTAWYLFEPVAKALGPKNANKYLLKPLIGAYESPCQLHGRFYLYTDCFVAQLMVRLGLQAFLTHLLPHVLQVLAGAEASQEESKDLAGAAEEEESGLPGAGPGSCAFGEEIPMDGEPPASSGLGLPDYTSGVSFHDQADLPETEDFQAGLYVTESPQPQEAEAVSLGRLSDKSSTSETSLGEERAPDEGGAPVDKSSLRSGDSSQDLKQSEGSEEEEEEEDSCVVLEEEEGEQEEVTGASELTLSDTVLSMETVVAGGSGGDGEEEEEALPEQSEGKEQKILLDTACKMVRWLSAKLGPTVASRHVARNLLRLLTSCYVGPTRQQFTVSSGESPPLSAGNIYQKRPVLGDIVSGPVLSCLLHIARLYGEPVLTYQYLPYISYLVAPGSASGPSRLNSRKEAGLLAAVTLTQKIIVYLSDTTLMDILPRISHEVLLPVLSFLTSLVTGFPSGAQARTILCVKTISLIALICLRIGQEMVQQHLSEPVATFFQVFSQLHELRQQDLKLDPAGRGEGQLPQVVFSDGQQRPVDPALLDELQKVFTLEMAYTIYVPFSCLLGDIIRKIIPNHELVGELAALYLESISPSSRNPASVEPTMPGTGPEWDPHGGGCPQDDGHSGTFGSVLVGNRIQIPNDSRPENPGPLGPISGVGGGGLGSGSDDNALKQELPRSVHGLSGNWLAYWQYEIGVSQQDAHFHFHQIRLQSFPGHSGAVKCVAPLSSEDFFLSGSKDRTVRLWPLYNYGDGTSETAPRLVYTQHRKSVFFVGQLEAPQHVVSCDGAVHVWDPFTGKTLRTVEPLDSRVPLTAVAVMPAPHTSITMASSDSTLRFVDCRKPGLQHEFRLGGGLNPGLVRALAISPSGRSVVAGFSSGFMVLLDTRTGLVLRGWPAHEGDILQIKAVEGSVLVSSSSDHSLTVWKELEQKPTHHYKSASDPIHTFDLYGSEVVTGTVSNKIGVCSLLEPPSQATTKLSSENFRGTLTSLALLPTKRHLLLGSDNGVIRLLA
UniProt O43933: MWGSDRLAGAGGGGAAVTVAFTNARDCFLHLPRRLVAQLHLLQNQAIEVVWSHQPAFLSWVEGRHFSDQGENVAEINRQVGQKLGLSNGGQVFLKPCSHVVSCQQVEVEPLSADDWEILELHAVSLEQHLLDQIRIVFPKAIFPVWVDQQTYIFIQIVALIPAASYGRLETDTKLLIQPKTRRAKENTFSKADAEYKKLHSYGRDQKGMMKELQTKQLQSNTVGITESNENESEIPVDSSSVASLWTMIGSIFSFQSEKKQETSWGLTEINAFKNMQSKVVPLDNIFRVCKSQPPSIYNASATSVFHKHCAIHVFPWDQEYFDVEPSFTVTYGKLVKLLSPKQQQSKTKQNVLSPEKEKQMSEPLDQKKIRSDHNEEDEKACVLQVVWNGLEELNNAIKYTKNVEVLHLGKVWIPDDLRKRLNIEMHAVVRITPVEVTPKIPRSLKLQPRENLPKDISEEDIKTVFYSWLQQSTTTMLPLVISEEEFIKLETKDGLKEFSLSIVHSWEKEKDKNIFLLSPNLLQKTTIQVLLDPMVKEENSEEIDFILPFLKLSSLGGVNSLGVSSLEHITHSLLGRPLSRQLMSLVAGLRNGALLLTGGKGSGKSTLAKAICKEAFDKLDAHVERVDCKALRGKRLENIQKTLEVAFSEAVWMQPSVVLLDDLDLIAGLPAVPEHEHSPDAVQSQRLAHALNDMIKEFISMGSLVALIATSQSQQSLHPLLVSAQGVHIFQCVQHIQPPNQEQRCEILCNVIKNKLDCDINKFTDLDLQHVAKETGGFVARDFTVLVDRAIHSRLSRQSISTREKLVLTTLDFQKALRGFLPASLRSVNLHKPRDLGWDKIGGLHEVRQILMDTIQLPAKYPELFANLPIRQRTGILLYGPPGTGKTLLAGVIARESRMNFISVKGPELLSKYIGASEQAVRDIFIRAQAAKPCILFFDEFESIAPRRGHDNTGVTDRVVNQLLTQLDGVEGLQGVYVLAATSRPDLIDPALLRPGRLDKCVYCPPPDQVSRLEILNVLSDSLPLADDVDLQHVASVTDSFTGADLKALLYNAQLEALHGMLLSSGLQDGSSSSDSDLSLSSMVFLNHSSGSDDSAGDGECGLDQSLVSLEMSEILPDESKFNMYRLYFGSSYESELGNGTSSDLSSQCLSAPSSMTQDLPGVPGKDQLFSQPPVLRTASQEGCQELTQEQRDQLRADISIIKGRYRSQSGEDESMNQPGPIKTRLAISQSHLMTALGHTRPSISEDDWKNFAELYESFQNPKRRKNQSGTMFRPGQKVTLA
UniProt P29401: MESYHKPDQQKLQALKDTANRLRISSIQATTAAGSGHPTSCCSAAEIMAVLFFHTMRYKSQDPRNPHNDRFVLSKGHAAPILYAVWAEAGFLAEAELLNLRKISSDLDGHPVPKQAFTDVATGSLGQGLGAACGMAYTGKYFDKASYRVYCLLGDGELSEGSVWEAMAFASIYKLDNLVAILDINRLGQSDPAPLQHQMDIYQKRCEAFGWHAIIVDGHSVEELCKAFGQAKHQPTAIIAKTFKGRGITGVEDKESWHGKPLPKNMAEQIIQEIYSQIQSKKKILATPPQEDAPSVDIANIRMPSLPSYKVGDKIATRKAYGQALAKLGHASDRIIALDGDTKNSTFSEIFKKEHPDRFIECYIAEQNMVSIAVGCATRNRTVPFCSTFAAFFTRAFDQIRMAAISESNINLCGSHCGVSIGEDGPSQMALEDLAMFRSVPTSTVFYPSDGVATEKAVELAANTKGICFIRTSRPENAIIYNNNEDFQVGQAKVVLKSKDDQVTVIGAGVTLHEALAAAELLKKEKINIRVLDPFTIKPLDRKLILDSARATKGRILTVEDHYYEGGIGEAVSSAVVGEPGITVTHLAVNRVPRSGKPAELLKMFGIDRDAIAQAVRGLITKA
UniProt Q9NWS8: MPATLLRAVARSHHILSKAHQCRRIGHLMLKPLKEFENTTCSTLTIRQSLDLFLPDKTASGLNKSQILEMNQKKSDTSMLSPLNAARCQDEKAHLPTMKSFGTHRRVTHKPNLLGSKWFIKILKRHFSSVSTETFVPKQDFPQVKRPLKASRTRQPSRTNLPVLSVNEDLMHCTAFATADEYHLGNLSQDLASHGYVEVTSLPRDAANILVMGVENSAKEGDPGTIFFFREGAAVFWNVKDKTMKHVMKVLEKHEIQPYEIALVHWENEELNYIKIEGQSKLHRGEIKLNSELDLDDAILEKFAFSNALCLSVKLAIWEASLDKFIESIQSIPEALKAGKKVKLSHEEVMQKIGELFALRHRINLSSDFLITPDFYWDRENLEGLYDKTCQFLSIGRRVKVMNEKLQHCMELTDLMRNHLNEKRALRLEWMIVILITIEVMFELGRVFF
UniProt O94880: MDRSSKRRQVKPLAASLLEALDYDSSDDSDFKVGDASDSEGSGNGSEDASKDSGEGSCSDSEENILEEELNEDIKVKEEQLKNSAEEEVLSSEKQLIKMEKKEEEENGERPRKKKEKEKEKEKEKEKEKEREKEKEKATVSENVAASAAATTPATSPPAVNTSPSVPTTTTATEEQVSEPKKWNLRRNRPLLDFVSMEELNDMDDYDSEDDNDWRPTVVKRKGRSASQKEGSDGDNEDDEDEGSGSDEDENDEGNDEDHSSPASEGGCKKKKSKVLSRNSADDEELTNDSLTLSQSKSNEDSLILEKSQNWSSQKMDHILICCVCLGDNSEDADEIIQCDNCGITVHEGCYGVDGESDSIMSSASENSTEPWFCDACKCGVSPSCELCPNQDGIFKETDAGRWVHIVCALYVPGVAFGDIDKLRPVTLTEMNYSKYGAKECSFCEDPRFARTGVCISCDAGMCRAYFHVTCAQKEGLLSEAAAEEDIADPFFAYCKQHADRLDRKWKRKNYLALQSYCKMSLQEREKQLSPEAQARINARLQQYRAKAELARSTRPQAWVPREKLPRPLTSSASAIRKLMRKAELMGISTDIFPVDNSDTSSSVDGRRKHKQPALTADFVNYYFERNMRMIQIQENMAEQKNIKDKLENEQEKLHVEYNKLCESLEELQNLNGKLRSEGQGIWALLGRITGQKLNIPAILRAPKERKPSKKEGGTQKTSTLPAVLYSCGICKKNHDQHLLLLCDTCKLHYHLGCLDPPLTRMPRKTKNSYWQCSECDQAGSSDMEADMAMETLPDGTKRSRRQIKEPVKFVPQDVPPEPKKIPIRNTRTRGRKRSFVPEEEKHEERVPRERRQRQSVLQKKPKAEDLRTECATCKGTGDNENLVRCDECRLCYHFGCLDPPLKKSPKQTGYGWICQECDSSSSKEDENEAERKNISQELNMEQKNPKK

Target	NP40-soluble protein abundance (concentration: 0.1mM)	NP40-soluble protein abundance (concentration: 0.5mM)	NP40-soluble protein abundance (concentration: 1mM)	NP40-soluble protein abundance (concentration: 2mM)	NP40-soluble protein abundance (concentration: 4mM)	NP40-soluble protein abundance (concentration: 6mM)	NP40-soluble protein abundance (concentration: 8mM)	NP40-soluble protein abundance (concentration: 10mM)
A0A0D9SG79|Q9NZ09 and related entries (UniProt Q9NZ09)	0.906 ± 0.026	0.953 ± 0.059	0.975 ± 0.08	0.958 ± 0.18	0.902 ± 0.05	0.923 ± 0.1	0.882 ± 0.061	1.03 ± 0.053
A0A087WYL7|G3V4A5 and related entries (UniProt O75586)	0.988 ± 0.034	1.07 ± 0.055	1.13 ± 0.085	1.13 ± 0.11	1.19 ± 0.2	1.2 ± 0.13	1.24 ± 0.21	1.27 ± 0.25
A0A0C4DGZ1|Q8N5P1 (UniProt Q8N5P1)	0.912 ± 0.077	0.873 ± 0.047	1.02 ± 0.054	1.04 ± 0.03	1.1 ± 0.054	1.11 ± 0.049	1.2 ± 0.048	1.25 ± 0.13
A0JP02 and related entries (UniProt Q9HAU0)	1.01 ± 0.068	0.993 ± 0.14	1.02 ± 0.017	1.05 ± 0.099	1.07 ± 0.062	1.097 ± 0.0031	1.17 ± 0.088	1.15 ± 0.083
A0A0B4J1Z1|C9JAB2 and related entries (UniProt Q16629)	1.089 ± 0.0095	1.36 ± 0.1	1.57 ± 0.23	1.58 ± 0.16	1.44 ± 0.33	1.55 ± 0.35	1.74 ± 0.47	1.75 ± 0.52
A0A0J9YXM6|Q562E7 and related entries (UniProt Q562E7)	1.005 ± 0.0072	1.08 ± 0.17	1.08 ± 0.29	1.04 ± 0.13	1.07 ± 0.16	1.02 ± 0.14	1.01 ± 0.2	0.99 ± 0.17
A0A087WZV8|A0A0G2JN66 (UniProt P01850)	1.02 ± 0.032	1.04 ± 0.034	1.002 ± 0.0081	1.01 ± 0.042	1.01 ± 0.036	0.98 ± 0.023	0.977 ± 0.04	0.976 ± 0.046
A0A0A0MTC2|D6RA37 and related entries (UniProt Q13454)	1.07 ± 0.063	1.06 ± 0.13	0.996 ± 0.081	0.95 ± 0.026	0.964 ± 0.032	1.05 ± 0.19	0.93 ± 0.091	0.981 ± 0.14
A0A087WXI1|Q6NVY1 (UniProt Q6NVY1)	0.948 ± 0.045	0.945 ± 0.042	0.909 ± 0.082	0.875 ± 0.083	0.863 ± 0.087	0.867 ± 0.092	0.861 ± 0.096	0.841 ± 0.096
A0A0A0MTR2|Q8N543 (UniProt Q8N543)	1.05 ± 0.048	1.05 ± 0.022	0.948 ± 0.023	0.942 ± 0.055	0.959 ± 0.06	0.897 ± 0.068	0.936 ± 0.03	0.883 ± 0.066
A0A0U1RR32|A0A0U1RRH7|P04908 and related entries (UniProt Q99878+Q7L7L0+Q6FI13+Q93077+P20671+P0C0S8+Q96KK5+P04908)	1.01 ± 0.11	0.7204 ± 0.0051	1.26 ± 0.37	1.24 ± 0.024	1.76 ± 0.48	1.92 ± 0.49	1.4 ± 0.53	2.39 ± 1.2
A0A0C4DG33|H7BZH3 and related entries (UniProt O43933)	0.955 ± 0.085	0.971 ± 0.047	0.95 ± 0.12	1 ± 0.12	1.02 ± 0.12	0.968 ± 0.17	0.988 ± 0.12	1.04 ± 0.084
A0A087X0M4|Q9BWU0 (UniProt Q9BWU0)	1.04 ± 0.013	1.04 ± 0.034	1.09 ± 0.027	1.08 ± 0.023	1.12 ± 0.043	1.1 ± 0.065	1.17 ± 0.079	1.14 ± 0.062
A0A0C4DFM7|Q5TAX3 (UniProt Q5TAX3)	1.02 ± 0.027	1 ± 0.034	0.989 ± 0.032	0.98 ± 0.03	0.992 ± 0.064	0.985 ± 0.085	0.989 ± 0.035	0.985 ± 0.036
A0A140T9L0|O15213 (UniProt O15213)	1.054 ± 0.0015	1.14 ± 0.018	1.07 ± 0.07	1.17 ± 0.015	1.14 ± 0.18	1.21 ± 0.093	1.28 ± 0.14	1.256 ± 0.012
A0A087WZ62|Q9H6U8 and related entries (UniProt Q9H6U8)	1.026 ± 0.0093	0.971 ± 0.021	1.03 ± 0.21	0.93 ± 0.029	0.978 ± 0.16	0.955 ± 0.11	0.92 ± 0.095	0.95 ± 0.093
A0A0B4J1R6|P29401 and related entries (UniProt P29401)	0.962 ± 0.022	0.99 ± 0.031	0.922 ± 0.023	0.909 ± 0.0056	0.899 ± 0.013	0.9049 ± 0.0065	0.869 ± 0.033	0.863 ± 0.033
A0A087WXS7|K7ERW9 and related entries (UniProt O43681)	0.966 ± 0.054	0.932 ± 0.021	0.865 ± 0.01	0.893 ± 0.044	0.903 ± 0.037	0.864 ± 0.034	0.821 ± 0.057	0.833 ± 0.065
A0A0A0MRL6|F8W8M4 and related entries (UniProt O14639)	0.998 ± 0.047	1.03 ± 0.021	1.04 ± 0.025	1.05 ± 0.018	1.04 ± 0.022	1.11 ± 0.029	1.16 ± 0.017	1.22 ± 0.047
A0A087WXU0|Q5SZ82 and related entries (UniProt Q9NWS8)	1.15 ± 0.051	1.16 ± 0.056	1.03 ± 0.035	1.1 ± 0.12	0.978 ± 0.097	1 ± 0.091	0.991 ± 0.12	0.962 ± 0.022
A0A0A6YYA7|Q12851 and related entries (UniProt Q12851)	0.975 ± 0.11	0.944 ± 0.11	0.851 ± 0.12	0.895 ± 0.08	0.888 ± 0.13	0.859 ± 0.11	0.828 ± 0.1	0.857 ± 0.061
A0A0U1RRH6|O94880 and related entries (UniProt O94880)	1.05 ± 0.095	1.07 ± 0.14	1.15 ± 0.12	1.16 ± 0.065	1.34 ± 0.12	1.46 ± 0.096	1.65 ± 0.25	1.78 ± 0.25
A0A087X0V4|A8K0B5 and related entries (UniProt Q8IWT0)	1.16 ± 0.12	1.03 ± 0.028	1.15 ± 0.16	0.984 ± 0.073	1.05 ± 0.1	1.04 ± 0.18	0.985 ± 0.061	0.982 ± 0.1
A0A0A6YYI3|A0A0B4J1V8|Q9NQ55 and related entries (UniProt Q9NQ55)	0.987 ± 0.052	0.972 ± 0.063	0.973 ± 0.095	1.06 ± 0.041	1.03 ± 0.047	1.18 ± 0.019	1.18 ± 0.07	1.373 ± 0.0097

Single records (already shown). Order of values: NP40-soluble protein abundance (concentration: 0.1mM)	NP40-soluble protein abundance (concentration: 0.5mM)	NP40-soluble protein abundance (concentration: 1mM)	NP40-soluble protein abundance (concentration: 2mM)	NP40-soluble protein abundance (concentration: 4mM)	NP40-soluble protein abundance (concentration: 6mM)	NP40-soluble protein abundance (concentration: 8mM)	NP40-soluble protein abundance (concentration: 10mM)
A0A0B4J1R6|P29401 and related entries (UniProt P29401) as listed: 0.962 ± 0.022	0.99 ± 0.031	0.922 ± 0.023	0.909 ± 0.0056	0.899 ± 0.013	0.9049 ± 0.0065	0.869 ± 0.033	0.863 ± 0.033
A0A0J9YXM6|Q562E7 and related entries (UniProt Q562E7) as listed: 1.005 ± 0.0072	1.08 ± 0.17	1.08 ± 0.29	1.04 ± 0.13	1.07 ± 0.16	1.02 ± 0.14	1.01 ± 0.2	0.99 ± 0.17
